Experimental findings from article PMC8582497 are described below.

Amino acid sequences for entries named in this document (tags omitted). A change or cut given only in a name is not applied to a line headed by its entry.
UniProt Q70E73: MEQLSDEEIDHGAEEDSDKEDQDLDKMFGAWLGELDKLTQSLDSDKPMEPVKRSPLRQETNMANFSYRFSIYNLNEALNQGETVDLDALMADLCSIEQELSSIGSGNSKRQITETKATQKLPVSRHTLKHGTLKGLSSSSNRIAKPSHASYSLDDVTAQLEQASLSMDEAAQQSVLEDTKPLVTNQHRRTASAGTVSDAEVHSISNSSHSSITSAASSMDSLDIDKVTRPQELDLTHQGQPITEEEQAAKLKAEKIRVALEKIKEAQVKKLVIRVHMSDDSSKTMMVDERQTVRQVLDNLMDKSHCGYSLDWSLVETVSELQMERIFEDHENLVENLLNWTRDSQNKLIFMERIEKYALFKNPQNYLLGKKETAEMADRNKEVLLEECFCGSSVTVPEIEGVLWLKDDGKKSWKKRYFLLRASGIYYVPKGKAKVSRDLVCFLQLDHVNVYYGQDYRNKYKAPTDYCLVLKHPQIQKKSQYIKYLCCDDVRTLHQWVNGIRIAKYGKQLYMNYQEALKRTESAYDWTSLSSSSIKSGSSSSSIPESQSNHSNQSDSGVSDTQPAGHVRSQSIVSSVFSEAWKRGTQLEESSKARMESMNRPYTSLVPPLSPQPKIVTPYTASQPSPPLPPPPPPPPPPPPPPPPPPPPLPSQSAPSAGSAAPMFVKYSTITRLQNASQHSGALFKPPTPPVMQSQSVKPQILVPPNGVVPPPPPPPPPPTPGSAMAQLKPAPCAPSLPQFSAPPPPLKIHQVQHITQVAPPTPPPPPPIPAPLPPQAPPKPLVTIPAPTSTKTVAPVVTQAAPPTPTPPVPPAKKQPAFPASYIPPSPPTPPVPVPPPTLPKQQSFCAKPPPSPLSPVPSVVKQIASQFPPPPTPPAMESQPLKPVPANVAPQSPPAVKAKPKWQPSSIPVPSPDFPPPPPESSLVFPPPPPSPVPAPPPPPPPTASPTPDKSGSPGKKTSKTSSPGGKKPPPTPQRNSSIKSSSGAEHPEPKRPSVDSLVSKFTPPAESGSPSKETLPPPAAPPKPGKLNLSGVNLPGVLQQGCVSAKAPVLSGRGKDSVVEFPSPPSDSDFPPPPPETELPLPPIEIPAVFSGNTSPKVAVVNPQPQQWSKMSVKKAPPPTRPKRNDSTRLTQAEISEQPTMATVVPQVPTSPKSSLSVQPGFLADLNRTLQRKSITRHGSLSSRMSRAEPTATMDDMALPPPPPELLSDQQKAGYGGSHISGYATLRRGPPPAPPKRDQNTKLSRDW
UniProt Q15032: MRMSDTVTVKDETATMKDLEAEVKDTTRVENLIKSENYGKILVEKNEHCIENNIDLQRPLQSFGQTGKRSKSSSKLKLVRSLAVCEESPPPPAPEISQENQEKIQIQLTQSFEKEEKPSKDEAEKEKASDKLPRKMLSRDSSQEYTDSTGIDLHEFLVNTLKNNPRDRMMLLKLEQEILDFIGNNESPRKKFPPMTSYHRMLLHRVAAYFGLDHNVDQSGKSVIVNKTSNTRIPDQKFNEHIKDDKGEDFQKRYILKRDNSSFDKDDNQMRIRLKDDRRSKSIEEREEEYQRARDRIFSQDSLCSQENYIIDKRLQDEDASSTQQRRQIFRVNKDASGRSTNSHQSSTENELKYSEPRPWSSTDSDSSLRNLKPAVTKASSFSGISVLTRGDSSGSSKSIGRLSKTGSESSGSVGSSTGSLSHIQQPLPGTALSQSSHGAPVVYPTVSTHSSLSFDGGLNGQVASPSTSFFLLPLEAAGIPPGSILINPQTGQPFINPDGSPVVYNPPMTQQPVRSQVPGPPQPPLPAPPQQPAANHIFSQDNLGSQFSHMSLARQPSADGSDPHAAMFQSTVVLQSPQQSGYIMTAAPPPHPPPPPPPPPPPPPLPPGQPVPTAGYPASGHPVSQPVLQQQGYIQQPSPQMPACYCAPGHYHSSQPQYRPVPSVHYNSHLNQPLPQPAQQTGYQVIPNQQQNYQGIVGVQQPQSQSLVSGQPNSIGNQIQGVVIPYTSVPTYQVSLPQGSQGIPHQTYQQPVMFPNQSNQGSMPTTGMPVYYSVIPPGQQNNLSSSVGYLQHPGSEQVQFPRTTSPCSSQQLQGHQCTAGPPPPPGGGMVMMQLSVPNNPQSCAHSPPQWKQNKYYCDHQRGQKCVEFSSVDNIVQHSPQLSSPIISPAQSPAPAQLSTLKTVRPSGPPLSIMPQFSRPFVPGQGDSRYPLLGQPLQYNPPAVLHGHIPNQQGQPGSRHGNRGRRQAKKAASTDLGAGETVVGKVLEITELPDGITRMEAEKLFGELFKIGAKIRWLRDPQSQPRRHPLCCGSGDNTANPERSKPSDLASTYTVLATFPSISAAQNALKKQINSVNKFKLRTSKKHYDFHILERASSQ
UniProt Q92747: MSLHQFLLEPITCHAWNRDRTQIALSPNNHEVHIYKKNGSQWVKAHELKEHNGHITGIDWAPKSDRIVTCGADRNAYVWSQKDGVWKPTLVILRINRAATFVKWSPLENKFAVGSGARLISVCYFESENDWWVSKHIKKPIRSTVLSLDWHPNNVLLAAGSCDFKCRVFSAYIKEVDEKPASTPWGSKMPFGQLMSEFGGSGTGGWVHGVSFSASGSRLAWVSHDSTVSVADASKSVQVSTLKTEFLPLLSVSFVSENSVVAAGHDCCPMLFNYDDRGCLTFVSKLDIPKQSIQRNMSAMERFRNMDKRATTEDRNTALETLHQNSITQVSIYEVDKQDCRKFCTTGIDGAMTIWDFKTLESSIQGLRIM

In this experiment the target is Lamellipodin (human (endogenous in A172 and U343MG)) (UniProt Q70E73). Description: affinity purification with mass spectrometry; endogenous Lpd immunoprecipitated (anti-Lamellipodin #91138, protein A/G Sepharose, overnight 4 °C) from 1000 µg A172 lysate in GST lysis buffer (50 mM Tris HCl, 200 mM NaCl, 1% NP-40, pH 7.4), unirradiated or 1 h after 6 Gy X-rays; rabbit IgG control; label-free quantification, Lpd/IgG ratio of at least two.

These are yes or no findings as the source states them, for the method shown. Binding seen in cells or lysates may run through a third protein. These calls come from enrichment with a bait or labelling near it, and not all partners need be listed.

As to “R3H domain containing 1 (from UniProt Q15032 1-1099)”, the binding result is recorded as “binds”.

With “Actin-related protein 2/3 complex subunit 1A (from UniProt Q92747 1-370)”, the binding entry is given as “binds”.
